# Test results published in the supplement of paper PMC7752906.
# Counter-ions that a name gives are not always drawn. This is one part of the list. This data set is noisy: repeats of one test often differ as much as different tests do.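 Test system: Schistosoma mansoni schistosomula, roughly 40 per well, imaged in bright field over time and compared with wells given 0.1% DMSO. Distance read-out: the paper calls a drug a hit when its Mahalanobis distance is at least 2.47, three standard deviations above the DMSO control mean. Degeneracy is the share of worms classified opaque.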
# Test system: Schistosoma mansoni schistosomula
# Assay: Mahalanobis distance of static-rate-frequency phenotype descriptors from DMSO controls (dimensionless); higher = stronger phenotypic change versus DMSO
# Conditions: 10 µM; 72 h
row,Compound,Mahalanobis distance
1,O=C1OC(CN2CCOCC2)CN1/N=C/c1ccc([N+](=O)[O-])o1 (centres undefined) [Furaltadone],inactive: 1.91
2,C[C@H]1[C@H](OC(=O)CCC(=O)O)O[C@@H]2O[C@@]3(C)CC[C@H]4[C@H](C)CC[C@@H]1[C@@]24OO3 [Artesunate],inactive: 1.88
3,Cc1cccc(Nc2ccccc2C(=O)O)c1C [Mefenamic Acid],inactive: 1.74
4,O=C(O)CCNC(=O)c1ccc(/N=N/c2ccc(O)c(C(=O)O)c2)cc1 [Balsalazide],active: 2.56
5,"CCCCc1nc(Cl)c(CO)n1Cc1ccc(-c2ccccc2-c2nnn[nH]2)cc1 [Losartan, Losartan Potassium]",inactive: 1.87
6,CC(=O)OCC1=C(C(=O)O)N2C(=O)[C@@H](NC(=O)Cc3cccs3)[C@H]2SC1 [Cephalothin Sodium],inactive: 1.73
7,CCOc1ccc(NC(=O)CC(C)O)cc1 (centres undefined) [Bucetin],inactive: 1.32
8,Clc1ccc(C(Cn2ccnc2)OCc2csc3c(Cl)cccc23)c(Cl)c1 (centres undefined) [Sertaconazole Nitrate],inactive: 1.9
9,Cc1nc2n(c(=O)c1CCN1CCC(c3noc4cc(F)ccc34)CC1)CCCC2O (centres undefined) [Paliperidone],inactive: 2.12
10,O=C1CCC(N2C(=O)c3ccccc3C2=O)C(=O)N1 (centres undefined) [Thalidomide],inactive: 2.28
11,COc1c2ccoc2cc2oc(=O)ccc12 [Bergapten],active: 3.14
12,O=C1CCc2ccc(OCCCCN3CCN(c4cccc(Cl)c4Cl)CC3)cc2N1 [aripiprazole],inactive: 1.83
13,CN(C)CCOC(c1ccc(Cl)cc1)c1ccccn1 (centres undefined) [Carbinoxamine],inactive: 1.38
14,Cc1ccccc1C(OCCN(C)C)c1ccccc1 (centres undefined) [Orphenadrine],active: 2.78
15,CN1CCN(c2c(F)cc3c(=O)c(C(=O)O)cn4c3c2SCC4)CC1 [Rufloxacin Hydrochloride],inactive: 2.09
16,COC(=O)C1=C(C)NC(C)=C(C(=O)OCCN(C)Cc2ccccc2)C1c1cccc([N+](=O)[O-])c1 (centres undefined) [nicardipine],active: 2.63
17,COC(=O)C1=C(C)NC(C)=C(C(=O)OCC(C)C)C1c1ccccc1[N+](=O)[O-] (centres undefined) [Nisoldipine],inactive: 1.93
18,CC(O)(P(=O)(O)O)P(=O)(O)O [Etidronate Disodium],inactive: 1.57
19,O=C1[C@H](CC[C@H](O)c2ccc(F)cc2)[C@@H](c2ccc(O)cc2)N1c1ccc(F)cc1 [Ezetimibe],inactive: 1.99
20,O=S(=O)(O)c1cc(I)c(O)c2ncccc12 [Chiniofon],inactive: 1.26
21,O=C(O)COCCN1CCN([C@H](c2ccccc2)c2ccc(Cl)cc2)CC1 [Levocetirizine Dihydrochloride],active: 2.64
22,CN1CCC(=C2c3ccccc3CCc3sccc32)CC1 [Pizotyline Malate],active: 2.77

row,Compound,Mahalanobis distance
1,CN1CCOC(c2ccccc2)c2ccccc2C1 (centres undefined) [Nefopam],active: 4.07
2,CCCCCOC(=O)Nc1nc(=O)n([C@@H]2O[C@H](C)[C@@H](O)[C@H]2O)cc1F [Capecitabine],active: 2.47
3,CCCCNc1ccc(C(=O)OCCN(C)C)cc1 [Tetracaine],active: 3.19
4,CCN(CC)CCOc1ccc(C(=C(Cl)c2ccccc2)c2ccccc2)cc1 [clomiphene],inactive: 2.17
5,O=C(O)C1(C(=O)O)CCC1.[NH2-].[NH2-].[Pt+2] [Carboplatin],inactive: 1.9
6,Cc1cnc(C(=O)O)c[n+]1[O-] [Acipimox],inactive: 1.51
7,CC(=O)Nc1cccc(O)c1 [3-acetamidophenol],inactive: 1.25
8,CC1CCCC(C)N1 (centres undefined) [Nanofin],active: 2.52
9,COc1ccc(C(=O)c2ccccc2O)c(O)c1 [Dioxybenzone],inactive: 2.27
10,COc1ccc(CN2CCN(C(c3ccc(F)cc3)c3ccc(F)cc3)CC2)c(OC)c1OC [lomerizine],active: 4.64
11,OCc1ccccn1 [Piconol],inactive: 1.44
12,O=C(O)c1ccccc1 [Benzoic Acid],inactive: 1.54
13,CCCCC[C@H](O)/C=C/[C@H]1[C@H](O)CC(=O)[C@@H]1CCCCCCC(=O)O [Alprostadil],inactive: 1.83
14,CC(=O)Nc1ccc(C(=O)O)cc1 [Acedoben],inactive: 1.74
15,COc1cc2ncnc(Nc3ccc(F)c(Cl)c3)c2cc1OCCCN1CCOCC1 [Gefitinib],inactive: 2.38
16,CCOc1ccc(NC(C)=O)cc1 [Phenacetin],active: 2.86
17,CC(C)(C)NCC(O)c1cc(O)cc(O)c1 (centres undefined) [Terbutaline],inactive: 1.92
18,C=C(c1ccc(C(=O)O)cc1)c1cc2c(cc1C)C(C)(C)CCC2(C)C [Bexarotene],inactive: 1.36
19,C#C[C@]1(O)CC[C@H]2[C@@H]3CCC4=C(CCC(=O)C4)[C@H]3CC[C@@]21C [Norethynodrel],active: 3.51
20,CC/C(=C(\c1ccccc1)c1ccc(OCCN(C)C)cc1)c1ccccc1 [tamoxifen],inactive: 2.45
21,CN[C@@H]1[C@H](O[C@H]2[C@H](O[C@H]3[C@H](O)[C@@H](O)[C@H](NC(=N)N)[C@@H](O)[C@@H]3NC(=N)N)O[C@@H](C)[C@]2(O)CO)O[C@@H](CO)[C@H](O)[C@H]1O [Dihydrostreptomycin Sulfate],inactive: 2.18
22,NCc1ccc(S(N)(=O)=O)cc1 [Mafenide Hydrochloride],inactive: 2.36

# An excerpt of these results, bar-delimited.
row | Compound | Mahalanobis distance
16 | COC(=O)C1=C(C)NC(C)=C(C(=O)OCCN(C)Cc2ccccc2)C1c1cccc([N+](=O)[O-])c1 (centres undefined) [nicardipine] | active: 2.63
21 | CN[C@@H]1[C@H](O[C@H]2[C@H](O[C@H]3[C@H](O)[C@@H](O)[C@H](NC(=N)N)[C@@H](O)[C@@H]3NC(=N)N)O[C@@H](C)[C@]2(O)CO)O[C@@H](CO)[C@H](O)[C@H]1O [Dihydrostreptomycin Sulfate] | inactive: 2.18
